The values below come from paper doi:10.1101/2022.01.12.475264.

These are yes or no findings as the source states them, for the method shown. Binding seen in cells or lysates may run through a third protein. Some results given as binding are weak or reduced against the parent protein; the word gives no strength. Where a sequence is shown, tags or fusion partners need not be part of it.

The target of this assay is T1, GST-ICAT (Inhibitor of Catenin and TCF) (UniProt Q9NSA3).
T1 sequence: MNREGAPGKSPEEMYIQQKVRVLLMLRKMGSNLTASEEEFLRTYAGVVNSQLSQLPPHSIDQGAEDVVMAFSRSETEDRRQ
Description: pull-down.

B1: β-catenin (protein, UniProt Q9WU82 1-781)
chain: MATQADLMELDMAMEPDRKAAVSHWQQQSYLDSGIHSGATTTAPSLSGKGNPEEEDVDTSQVLYEWEQGFSQSFTQEQVADIDGQYAMTRAQRVRAAMFPETLDEGMQIPSTQFDAAHPTNVQRLAEPSQMLKHAVVNLINYQDDAELATRAIPELTKLLNDEDQVVVNKAAVMVHQLSKKEASRHAIMRSPQMVSAIVRTMQNTNDVETARCTAGTLHNLSHHREGLLAIFKSGGIPALVKMLGSPVDSVLFYAITTLHNLLLHQEGAKMAVRLAGGLQKMVALLNKTNVKFLAITTDCLQILAYGNQESKLIILASGGPQALVNIMRTYTYEKLLWTTSRVLKVLSVCSSNKPAIVEAGGMQALGPHLTDPSQRLVQNCLWTLRNLSDAATKQEGMEGLLGTLVQLLGSDDINVVTCAAGILSNLTCNNYKNKMMVCQVGGIEALVRTVLRAGDREDITEPAICALRHLTSRHQEAEMAQNAVRLHYGLPVVVKLLHPPSHWPLIKATVGLIRNLALCPANHAPLREQGAIPRLVQLLVRAHQDTQRRTSMGGTQQQFVEGVRMEEIVEGCTGALHILARDVHNRIVIRGLNTIPLFVQLLYSPIENIQRVAAGVLCELAQDKEAAEAIEAEGATAPLTELLHSRNEGVATYAAAVLFRMSEDKPQDYKKRLSVELTSSLFRTEPMAWNETADLGLDIGAQGEALGYRQDDPSYRSFHSGGYGQDALGMDPMMEHEMGGHHPGADYPVDGLPDLGHAQDLMDGLPPGDSNQLAWFDTDL
Take B1: the binding entry was “binds”.
